Series [1] is described as follows: general procedure: Fmoc solid-phase peptide synthesis; Rink.
Series [2] in a line: Fmoc solid-phase peptide synthesis; Rink. The following applies: whole synthesis.

For part of these data: Some peptides are written in HELM: one residue between dots, names in brackets for other building blocks, links after the first $.

With “PEPTIDE1{[DUPA].[6-Ahx].K.[6-Ahx].[dF].Q.W.A.V.G.H.[Sta].L.[am]}|PEPTIDE2{[DOTA]}$PEPTIDE1,PEPTIDE2,3:R3-1:R2$$$V2.0 [DUPA-6-Ahx-Lys(DOTA)-6-Ahx-RM2]”, the conjugation yield result in series [1] (conjugation step, on precursor DUPA-6-Ahx-Lys-6-Ahx-RM2) was “˜35%”. The substance also had an isolated yield in series [1] (whole synthesis) of 58%.
With DUPA-6-Ahx-Lys-6-Ahx-RM2, the isolated yield entry in series [2] is “˜60%”.

The values above are taken from patent publication US11167048B2 (priority 2018, dated 2021).
